Measured values published in the supplement of paper PMC8728848.
The other results are listed elsewhere or left out.

Assays:
Test in all cases: glycan array binding signal (z-score within array); higher = stronger binding
Details in all cases: glycan notation: IUPAC condensed, linker removed
[1] = target: Fuc(a1-2)Gal
Procedure, shortened: (§1)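 Glycan array data were curated from 3228 arrays in the Consortium for Functional Glycomics database and kept only where the protein sequence was available. Glycan names were converted to IUPAC-condensed notation, and columns mapping to the same glycan were averaged. The binding signal is a within-array Z-score, averaged across arrays of the same protein sequence at different concentrations or buffers and across linkers. Negative Z-scores can be read as non-binding.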

[2] = target: Fuc(a1-2)Gal(b1-3)GalNAc
Procedure, shortened: as §1

[3] = target: Fuc(a1-2)Gal(b1-3)GalNAc(a1-3)[Fuc(a1-2)]Gal(b1-4)Glc
Procedure, shortened: as §1

[4] = target: Fuc(a1-2)Gal(b1-3)GalNAc(a1-3)[Fuc(a1-2)]Gal(b1-4)GlcNAc
Procedure, shortened: as §1

[5] = target: Fuc(a1-2)Gal(b1-3)GalNAc(b1-3)Gal
Procedure, shortened: as §1

[6] = target: Fuc(a1-2)Gal(b1-3)GalNAc(b1-3)Gal(a1-4)Gal(b1-4)Glc
Procedure, shortened: as §1

[7] = target: Fuc(a1-2)Gal(b1-3)GalNAc(b1-4)[Neu5Ac(a2-3)]Gal(b1-4)Glc
Procedure, shortened: as §1

[8] = target: Fuc(a1-2)Gal(b1-3)GlcNAc
Procedure, shortened: as §1

[9] = target: Fuc(a1-2)Gal(b1-3)GlcNAc(b1-2)Man(a1-3)[Fuc(a1-2)Gal(b1-3)GlcNAc(b1-2)Man(a1-6)]Man(b1-4)GlcNAc(b1-4)GlcNAc
Procedure, shortened: as §1

[10] = target: Fuc(a1-2)Gal(b1-3)GlcNAc(b1-2)Man(a1-3)[Fuc(a1-2)Gal(b1-3)GlcNAc(b1-2)Man(a1-6)]Man(b1-4)GlcNAc(b1-4)[Fuc(a1-6)]GlcNAc
Procedure, shortened: as §1

[11] = target: Fuc(a1-2)Gal(b1-3)GlcNAc(b1-3)Gal(b1-4)Glc
Procedure, shortened: as §1

[12] = target: Fuc(a1-2)Gal(b1-3)GlcNAc(b1-3)GalNAc
Procedure, shortened: as §1

[13] = target: Fuc(a1-2)Gal(b1-3)GlcNAc(b1-3)[Fuc(a1-2)Gal(b1-3)GlcNAc(b1-6)]GalNAc
Procedure, shortened: as §1

[14] = target: Fuc(a1-2)Gal(b1-3)GlcNAc(b1-3)[Fuc(a1-3)[Gal(b1-4)]GlcNAc(b1-6)]Gal(b1-4)Glc
Procedure, shortened: as §1

[15] = target: Fuc(a1-2)Gal(b1-3)GlcNAc(b1-3)[Gal(b1-4)GlcNAc(b1-6)]Gal(b1-4)Glc
Procedure, shortened: as §1

[16] = target: Fuc(a1-2)Gal(b1-3)GlcNAc(b1-3)[Neu5Ac(a2-6)Gal(b1-4)GlcNAc(b1-6)]Gal(b1-4)Glc
Procedure, shortened: as §1

[17] = target: Fuc(a1-2)Gal(b1-3)GlcNAc6S
Procedure, shortened: as §1

[18] = target: Fuc(a1-2)Gal(b1-3)[Fuc(a1-4)]GlcNAc
Procedure, shortened: as §1

[19] = target: Fuc(a1-2)Gal(b1-3)[Fuc(a1-4)]GlcNAc(b1-2)Man(a1-3)[Fuc(a1-2)Gal(b1-3)[Fuc(a1-4)]GlcNAc(b1-2)Man(a1-3)]Man(b1-4)GlcNAc(b1-4)GlcNAc
Procedure, shortened: as §1

[20] = target: Fuc(a1-2)Gal(b1-3)[Fuc(a1-4)]GlcNAc(b1-2)Man(a1-3)[Fuc(a1-2)Gal(b1-3)[Fuc(a1-4)]GlcNAc(b1-2)Man(a1-6)]Man(b1-4)GlcNAc(b1-4)GlcNAc
Procedure, shortened: as §1

[21] = target: Fuc(a1-2)Gal(b1-3)[Fuc(a1-4)]GlcNAc(b1-2)Man(a1-3)[Fuc(a1-2)Gal(b1-3)[Fuc(a1-4)]GlcNAc(b1-2)Man(a1-6)]Man(b1-4)GlcNAc(b1-4)[Fuc(a1-6)]GlcNAc(b1-4)[Fuc(a1-6)]GlcNAc
Procedure, shortened: as §1

[22] = target: Fuc(a1-2)Gal(b1-3)[Fuc(a1-4)]GlcNAc(b1-3)[Fuc(a1-3)[Gal(b1-4)]GlcNAc(b1-6)]Gal(b1-4)Glc
Procedure, shortened: as §1

[23] = target: Fuc(a1-2)Gal(b1-3)[Fuc(a1-4)]GlcNAc(b1-3)[Gal(b1-4)GlcNAc(b1-6)]Gal(b1-4)Glc
Procedure, shortened: as §1

[24] = target: Fuc(a1-2)Gal(b1-4)Fuc(a1-3)]GlcNAc(b1-2)Man(a1-3)[Fuc(a1-2)Gal(b1-4)[Fuc(a1-3)]GlcNAc(b1-2)Man(a1-6)]Man(b1-4)GlcNAc(b1-4)GlcNAc
Procedure, shortened: as §1

[25] = target: Fuc(a1-2)Gal(b1-4)Glc
Procedure, shortened: as §1

[26] = target: Fuc(a1-2)Gal(b1-4)Glc6S
Procedure, shortened: as §1

[27] = target: Fuc(a1-2)Gal(b1-4)GlcNAc
Procedure, shortened: as §1

[28] = target: Fuc(a1-2)Gal(b1-4)GlcNAc(b1-2)Man
Procedure, shortened: as §1

[29] = target: Fuc(a1-2)Gal(b1-4)GlcNAc(b1-2)Man(a1-3)[Fuc(a1-2)Gal(b1-4)GlcNAc(b1-2)Man(a1-6)]Man(b1-4)GlcNAc(b1-4)GlcNAc
Procedure, shortened: as §1

[30] = target: Fuc(a1-2)Gal(b1-4)GlcNAc(b1-2)Man(a1-3)[Fuc(a1-2)Gal(b1-4)GlcNAc(b1-2)Man(a1-6)]Man(b1-4)GlcNAc(b1-4)[Fuc(a1-6)]GlcNAc
Procedure, shortened: as §1

[31] = target: Fuc(a1-2)Gal(b1-4)GlcNAc(b1-2)[Fuc(a1-2)Gal(b1-4)GlcNAc(b1-4)]Man(a1-3)[Fuc(a1-2)Gal(b1-4)GlcNAc(b1-2)Man(a1-6)]Man(b1-4)GlcNAc(b1-4)GlcNAc
Procedure, shortened: as §1

[32] = target: Fuc(a1-2)Gal(b1-4)GlcNAc(b1-3)Gal(b1-4)GlcNAc
Procedure, shortened: as §1

[33] = target: Fuc(a1-2)Gal(b1-4)GlcNAc(b1-3)Gal(b1-4)GlcNAc(b1-2)Man(a1-3)[Fuc(a1-2)Gal(b1-4)GlcNAc(b1-3)Gal(b1-4)GlcNAc(b1-2)Man(a1-6)]Man(b1-4)GlcNAc(b1-4)GlcNAc
Procedure, shortened: as §1

[34] = target: Fuc(a1-2)Gal(b1-4)GlcNAc(b1-3)Gal(b1-4)GlcNAc(b1-3)Gal(b1-4)GlcNAc
Procedure, shortened: as §1

[35] = target: Fuc(a1-2)Gal(b1-4)GlcNAc(b1-3)GalNAc
Procedure, shortened: as §1

[36] = target: Fuc(a1-2)Gal(b1-4)GlcNAc(b1-3)[Fuc(a1-2)Gal(b1-4)GlcNAc(b1-6)]GalNAc
Procedure, shortened: as §1

[37] = target: Fuc(a1-2)Gal(b1-4)GlcNAc(b1-3)[Fuc(a1-3)[Gal(b1-4)]GlcNAc(b1-6)]Gal(b1-4)Glc
Procedure, shortened: as §1

B1: GST Gap3 (Streptococcus parasanguinis) (protein)
chain: MTKQLISEIYWNEIRKGENYLYGSQIKFQEDLVNFYNPQLASGKPIVTFKSRTNYQGDRHSPDLPILIQGNRYLLEYQIDAVPANSFFLQLDFFNRQAEQIESIVLRNSGESFIFPKDTFTYTLTLMSAGCQSVTYQKFMIYDINDEEKKNHIVENRYLRELLPKDLDLVKNLIEYI
- glycan array binding signal (z-score) [1]: -0.144
- glycan array binding signal (z-score) [2]: 0.147
- glycan array binding signal (z-score) [3]: 0.177
- glycan array binding signal (z-score) [4]: -0.202
- glycan array binding signal (z-score) [5]: -0.338
- glycan array binding signal (z-score) [6]: -0.271
- glycan array binding signal (z-score) [7]: -0.101
- glycan array binding signal (z-score) [8]: -0.387
- glycan array binding signal (z-score) [9]: 0.562
- glycan array binding signal (z-score) [10]: 0.534
- glycan array binding signal (z-score) [11]: -0.252
- glycan array binding signal (z-score) [12]: -0.456
- glycan array binding signal (z-score) [13]: 0.238
- glycan array binding signal (z-score) [14]: -0.027
- glycan array binding signal (z-score) [15]: -0.367
- glycan array binding signal (z-score) [16]: -0.285
- glycan array binding signal (z-score) [17]: -0.236
- glycan array binding signal (z-score) [18]: -0.222
- glycan array binding signal (z-score) [19]: 2.3
- glycan array binding signal (z-score) [20]: 0.461
- glycan array binding signal (z-score) [21]: 0.25
- glycan array binding signal (z-score) [22]: -0.258
- glycan array binding signal (z-score) [23]: -0.083
- glycan array binding signal (z-score) [24]: 0.885
- glycan array binding signal (z-score) [25]: -0.304
- glycan array binding signal (z-score) [26]: -0.171
- glycan array binding signal (z-score) [27]: -0.266
- glycan array binding signal (z-score) [28]: -0.166
- glycan array binding signal (z-score) [29]: 3.16
- glycan array binding signal (z-score) [30]: -0.105
- glycan array binding signal (z-score) [31]: 0.713
- glycan array binding signal (z-score) [32]: 0.219
- glycan array binding signal (z-score) [33]: -0.156
- glycan array binding signal (z-score) [34]: 0.296
- glycan array binding signal (z-score) [35]: 0.444
- glycan array binding signal (z-score) [36]: 0.444
- glycan array binding signal (z-score) [37]: -0.573
